Results are given in words; binding and its absence hold for the method and conditions named. In cells and extracts the contact can be indirect. Some binding calls cover weakened binding; strength is not graded here. For part of these data: Tags and fused reporters may be left off the sequences shown.
Columns and labels:
[1] = target: Myc-p65 (UniProt Q04206); test: co-IP; lysates of HEK293T cells transiently transfected with tagged proteins; IP with anti-Myc (p65 as bait) or anti-Flag (USP1 or UAF1 as bait), western blot with anti-Flag or anti-Myc; IP buffer 1.0% Nonidet P 40, 50 mM Tris-HCl pH 7.4, 50 mM EDTA, 150 mM NaCl
[2] = target: T1, Flag-USP1 (human (cDNA from THP-1 cells)) (UniProt O94782); test: as above
T1 sequence: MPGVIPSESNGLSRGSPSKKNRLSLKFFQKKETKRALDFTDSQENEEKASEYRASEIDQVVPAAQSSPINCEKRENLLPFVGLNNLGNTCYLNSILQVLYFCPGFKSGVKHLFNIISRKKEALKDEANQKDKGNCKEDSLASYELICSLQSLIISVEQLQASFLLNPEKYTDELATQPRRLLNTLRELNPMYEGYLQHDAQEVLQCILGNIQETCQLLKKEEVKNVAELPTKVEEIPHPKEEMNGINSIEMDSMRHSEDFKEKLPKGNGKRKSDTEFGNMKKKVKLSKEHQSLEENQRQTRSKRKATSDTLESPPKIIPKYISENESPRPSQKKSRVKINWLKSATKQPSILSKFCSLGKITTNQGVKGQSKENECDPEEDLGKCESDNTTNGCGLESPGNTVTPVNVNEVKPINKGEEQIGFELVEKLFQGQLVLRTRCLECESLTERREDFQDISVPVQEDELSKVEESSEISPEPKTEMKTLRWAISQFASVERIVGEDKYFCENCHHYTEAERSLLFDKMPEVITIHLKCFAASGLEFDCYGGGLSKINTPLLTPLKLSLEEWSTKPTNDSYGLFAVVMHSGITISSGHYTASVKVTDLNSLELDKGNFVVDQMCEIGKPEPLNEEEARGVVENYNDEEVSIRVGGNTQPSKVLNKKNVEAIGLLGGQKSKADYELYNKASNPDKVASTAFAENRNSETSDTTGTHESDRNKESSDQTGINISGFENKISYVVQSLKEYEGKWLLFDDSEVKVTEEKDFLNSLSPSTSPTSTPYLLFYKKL

Sequences of proteins named here, by UniProt entry; tags and fusion partners are left off. A change or cut given only in a name is not applied to a line headed by its entry.
UniProt Q04206: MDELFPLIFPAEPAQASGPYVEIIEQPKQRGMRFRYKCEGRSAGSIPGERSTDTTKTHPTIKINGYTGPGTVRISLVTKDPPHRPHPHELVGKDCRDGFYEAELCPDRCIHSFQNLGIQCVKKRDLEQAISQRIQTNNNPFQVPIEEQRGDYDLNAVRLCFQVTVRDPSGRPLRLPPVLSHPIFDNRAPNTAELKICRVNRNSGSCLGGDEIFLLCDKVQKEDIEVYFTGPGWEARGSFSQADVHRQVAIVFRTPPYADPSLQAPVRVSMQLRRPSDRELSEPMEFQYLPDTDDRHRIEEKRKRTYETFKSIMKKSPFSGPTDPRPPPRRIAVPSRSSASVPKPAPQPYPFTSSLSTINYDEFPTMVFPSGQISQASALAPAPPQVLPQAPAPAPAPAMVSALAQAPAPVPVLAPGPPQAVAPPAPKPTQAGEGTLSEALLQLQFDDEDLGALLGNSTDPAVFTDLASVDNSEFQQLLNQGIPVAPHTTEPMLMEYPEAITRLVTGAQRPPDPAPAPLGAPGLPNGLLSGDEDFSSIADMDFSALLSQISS
UniProt Q8TAF3: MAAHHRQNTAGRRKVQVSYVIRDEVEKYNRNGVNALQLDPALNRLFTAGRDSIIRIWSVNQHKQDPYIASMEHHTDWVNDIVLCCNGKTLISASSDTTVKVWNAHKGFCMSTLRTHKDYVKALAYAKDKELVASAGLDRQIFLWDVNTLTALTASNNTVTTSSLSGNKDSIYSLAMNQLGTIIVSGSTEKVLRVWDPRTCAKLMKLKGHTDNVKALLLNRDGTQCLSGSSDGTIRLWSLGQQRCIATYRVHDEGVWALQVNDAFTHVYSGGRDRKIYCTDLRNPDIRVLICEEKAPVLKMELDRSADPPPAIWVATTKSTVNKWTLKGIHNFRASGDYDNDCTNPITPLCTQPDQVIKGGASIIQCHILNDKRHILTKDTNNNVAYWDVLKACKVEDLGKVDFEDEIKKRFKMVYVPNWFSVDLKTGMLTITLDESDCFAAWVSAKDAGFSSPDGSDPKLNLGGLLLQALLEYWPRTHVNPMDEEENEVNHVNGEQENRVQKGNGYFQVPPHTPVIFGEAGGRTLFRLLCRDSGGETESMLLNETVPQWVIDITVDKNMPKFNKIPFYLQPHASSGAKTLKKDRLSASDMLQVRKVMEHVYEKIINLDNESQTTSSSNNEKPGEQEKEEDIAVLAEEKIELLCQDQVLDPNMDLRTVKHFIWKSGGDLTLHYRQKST
UniProt Q8BH57: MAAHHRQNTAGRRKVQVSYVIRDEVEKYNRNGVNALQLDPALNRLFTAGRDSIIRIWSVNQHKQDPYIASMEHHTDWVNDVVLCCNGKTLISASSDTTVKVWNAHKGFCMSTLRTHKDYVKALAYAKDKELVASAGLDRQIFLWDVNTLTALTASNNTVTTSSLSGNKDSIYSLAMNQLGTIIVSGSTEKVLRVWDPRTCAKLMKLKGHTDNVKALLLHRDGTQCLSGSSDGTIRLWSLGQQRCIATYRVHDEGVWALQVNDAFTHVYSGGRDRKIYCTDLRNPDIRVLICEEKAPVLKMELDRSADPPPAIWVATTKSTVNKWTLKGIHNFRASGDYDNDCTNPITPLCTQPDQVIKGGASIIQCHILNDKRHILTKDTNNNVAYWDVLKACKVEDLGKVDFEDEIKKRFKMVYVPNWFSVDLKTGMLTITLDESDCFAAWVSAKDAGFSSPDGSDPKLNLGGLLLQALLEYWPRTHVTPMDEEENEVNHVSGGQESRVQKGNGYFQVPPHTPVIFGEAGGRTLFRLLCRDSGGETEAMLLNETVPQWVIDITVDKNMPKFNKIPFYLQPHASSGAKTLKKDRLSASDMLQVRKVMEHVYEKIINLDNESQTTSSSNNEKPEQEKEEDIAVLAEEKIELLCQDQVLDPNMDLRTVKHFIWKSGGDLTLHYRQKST
UniProt Q04207: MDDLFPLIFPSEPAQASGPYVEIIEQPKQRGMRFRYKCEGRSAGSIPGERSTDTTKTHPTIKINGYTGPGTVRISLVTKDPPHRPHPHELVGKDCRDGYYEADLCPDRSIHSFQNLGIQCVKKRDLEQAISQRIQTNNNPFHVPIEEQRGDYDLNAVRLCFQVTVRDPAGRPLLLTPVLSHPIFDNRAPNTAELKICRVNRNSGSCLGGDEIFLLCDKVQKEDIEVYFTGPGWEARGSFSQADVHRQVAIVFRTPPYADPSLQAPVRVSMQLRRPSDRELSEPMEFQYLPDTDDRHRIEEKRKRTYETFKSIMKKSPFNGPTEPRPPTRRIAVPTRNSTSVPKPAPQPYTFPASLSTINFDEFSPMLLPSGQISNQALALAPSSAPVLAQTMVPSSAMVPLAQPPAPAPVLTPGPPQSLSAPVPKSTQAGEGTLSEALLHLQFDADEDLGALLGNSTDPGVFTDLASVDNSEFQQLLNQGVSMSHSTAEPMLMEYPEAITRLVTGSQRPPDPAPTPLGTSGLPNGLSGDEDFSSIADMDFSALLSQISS
UniProt O75317: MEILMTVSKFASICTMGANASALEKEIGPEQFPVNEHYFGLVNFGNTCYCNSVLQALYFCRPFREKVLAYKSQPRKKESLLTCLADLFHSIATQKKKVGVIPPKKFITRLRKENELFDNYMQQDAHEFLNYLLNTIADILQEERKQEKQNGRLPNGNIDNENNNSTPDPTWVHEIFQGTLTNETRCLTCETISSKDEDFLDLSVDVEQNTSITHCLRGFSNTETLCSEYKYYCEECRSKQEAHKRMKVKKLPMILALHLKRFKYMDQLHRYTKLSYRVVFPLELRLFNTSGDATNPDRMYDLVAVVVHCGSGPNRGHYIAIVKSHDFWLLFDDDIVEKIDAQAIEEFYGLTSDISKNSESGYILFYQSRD
UniProt P62068: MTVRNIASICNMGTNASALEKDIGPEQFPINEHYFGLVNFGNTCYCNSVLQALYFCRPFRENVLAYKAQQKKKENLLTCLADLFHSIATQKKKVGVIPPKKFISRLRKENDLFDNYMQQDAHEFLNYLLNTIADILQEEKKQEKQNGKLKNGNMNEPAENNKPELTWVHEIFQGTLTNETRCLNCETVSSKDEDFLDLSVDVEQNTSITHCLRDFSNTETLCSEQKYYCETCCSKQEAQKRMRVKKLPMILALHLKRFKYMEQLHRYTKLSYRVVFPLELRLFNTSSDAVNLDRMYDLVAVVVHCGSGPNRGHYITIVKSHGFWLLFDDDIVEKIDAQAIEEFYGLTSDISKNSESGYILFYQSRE
UniProt Q96P20: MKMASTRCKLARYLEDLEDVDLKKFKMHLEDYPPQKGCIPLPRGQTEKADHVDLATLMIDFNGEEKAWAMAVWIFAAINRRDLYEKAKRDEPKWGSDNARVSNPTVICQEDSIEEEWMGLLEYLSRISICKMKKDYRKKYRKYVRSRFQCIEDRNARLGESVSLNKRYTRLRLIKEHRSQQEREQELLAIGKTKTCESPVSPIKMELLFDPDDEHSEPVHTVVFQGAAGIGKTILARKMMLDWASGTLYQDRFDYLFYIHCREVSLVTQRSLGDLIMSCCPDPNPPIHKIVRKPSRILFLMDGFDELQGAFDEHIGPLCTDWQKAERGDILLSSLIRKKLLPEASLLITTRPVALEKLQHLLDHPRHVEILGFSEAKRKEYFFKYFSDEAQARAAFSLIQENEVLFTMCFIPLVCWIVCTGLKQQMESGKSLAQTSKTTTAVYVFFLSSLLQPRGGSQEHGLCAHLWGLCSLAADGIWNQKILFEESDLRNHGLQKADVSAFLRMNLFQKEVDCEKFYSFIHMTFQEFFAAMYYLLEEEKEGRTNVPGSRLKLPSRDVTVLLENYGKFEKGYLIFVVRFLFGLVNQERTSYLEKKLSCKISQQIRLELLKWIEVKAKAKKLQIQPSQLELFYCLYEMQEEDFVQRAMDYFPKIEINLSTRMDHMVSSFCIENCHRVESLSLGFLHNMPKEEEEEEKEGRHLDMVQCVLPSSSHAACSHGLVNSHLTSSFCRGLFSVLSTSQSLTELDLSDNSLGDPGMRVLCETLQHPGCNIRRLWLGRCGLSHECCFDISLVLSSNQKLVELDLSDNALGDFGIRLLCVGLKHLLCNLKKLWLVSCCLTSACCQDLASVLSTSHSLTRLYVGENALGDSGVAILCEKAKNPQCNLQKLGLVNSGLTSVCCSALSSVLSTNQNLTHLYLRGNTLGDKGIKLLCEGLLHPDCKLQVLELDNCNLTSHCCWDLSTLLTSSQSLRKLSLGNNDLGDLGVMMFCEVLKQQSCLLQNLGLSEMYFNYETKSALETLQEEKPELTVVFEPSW
UniProt Q8R4B8: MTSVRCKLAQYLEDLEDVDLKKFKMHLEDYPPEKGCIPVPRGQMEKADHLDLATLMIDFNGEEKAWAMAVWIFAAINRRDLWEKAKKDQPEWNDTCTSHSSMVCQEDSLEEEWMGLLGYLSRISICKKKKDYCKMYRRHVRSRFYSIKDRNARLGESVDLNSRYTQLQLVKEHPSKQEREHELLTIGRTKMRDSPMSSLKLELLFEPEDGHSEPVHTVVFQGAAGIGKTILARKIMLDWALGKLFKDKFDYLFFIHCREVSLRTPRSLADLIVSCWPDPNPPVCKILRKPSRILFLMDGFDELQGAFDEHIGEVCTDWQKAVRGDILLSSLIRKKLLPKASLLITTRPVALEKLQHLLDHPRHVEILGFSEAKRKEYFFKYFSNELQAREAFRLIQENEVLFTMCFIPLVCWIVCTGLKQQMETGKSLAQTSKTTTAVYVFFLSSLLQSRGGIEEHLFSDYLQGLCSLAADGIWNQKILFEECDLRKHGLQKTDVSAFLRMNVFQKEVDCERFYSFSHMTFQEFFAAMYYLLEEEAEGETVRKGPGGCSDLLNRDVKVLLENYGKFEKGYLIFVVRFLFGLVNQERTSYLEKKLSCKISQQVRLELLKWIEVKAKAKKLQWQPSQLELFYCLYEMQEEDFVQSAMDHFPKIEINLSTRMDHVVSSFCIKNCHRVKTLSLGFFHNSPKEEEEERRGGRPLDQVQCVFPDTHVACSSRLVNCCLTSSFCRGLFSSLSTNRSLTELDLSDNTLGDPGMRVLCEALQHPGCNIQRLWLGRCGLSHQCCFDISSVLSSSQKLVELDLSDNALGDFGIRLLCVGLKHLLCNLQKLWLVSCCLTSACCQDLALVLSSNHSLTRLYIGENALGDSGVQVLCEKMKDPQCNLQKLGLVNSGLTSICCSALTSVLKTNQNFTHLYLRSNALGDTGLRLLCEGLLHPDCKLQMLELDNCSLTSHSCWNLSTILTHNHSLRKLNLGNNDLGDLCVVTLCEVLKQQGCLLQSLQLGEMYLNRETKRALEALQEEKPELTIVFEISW
UniProt Q9D9M2: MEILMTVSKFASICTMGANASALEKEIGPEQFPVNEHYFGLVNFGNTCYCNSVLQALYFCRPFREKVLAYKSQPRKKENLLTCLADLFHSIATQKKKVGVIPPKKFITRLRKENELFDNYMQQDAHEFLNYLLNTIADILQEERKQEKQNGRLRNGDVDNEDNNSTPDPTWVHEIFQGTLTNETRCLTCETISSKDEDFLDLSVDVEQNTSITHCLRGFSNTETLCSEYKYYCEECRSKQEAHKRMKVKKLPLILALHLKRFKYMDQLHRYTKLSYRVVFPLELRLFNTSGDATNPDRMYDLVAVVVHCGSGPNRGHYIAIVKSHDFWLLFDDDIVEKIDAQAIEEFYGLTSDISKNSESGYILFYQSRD
UniProt P62069: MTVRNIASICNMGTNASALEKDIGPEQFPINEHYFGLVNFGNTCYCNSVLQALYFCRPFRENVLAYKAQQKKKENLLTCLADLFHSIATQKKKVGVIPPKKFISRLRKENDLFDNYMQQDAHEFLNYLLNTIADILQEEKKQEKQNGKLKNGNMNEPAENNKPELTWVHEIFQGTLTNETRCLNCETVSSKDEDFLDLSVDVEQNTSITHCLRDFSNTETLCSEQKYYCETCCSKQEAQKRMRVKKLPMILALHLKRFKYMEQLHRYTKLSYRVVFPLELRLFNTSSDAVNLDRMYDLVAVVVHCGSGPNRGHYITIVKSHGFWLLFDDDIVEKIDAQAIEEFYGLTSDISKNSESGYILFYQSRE

[3] = target: Flag-UAF1 (human (cDNA from THP-1 cells)) (UniProt Q8TAF3); test: as above
[4] = target: T2, USP1 (from PCMV6-USP1, in vitro transcribed and translated) (UniProt O94782); test: co-IP; in vitro binding assay: both proteins obtained by in vitro transcription and translation, mixed together, IP with USP1 antibody or HA antibody, immunoblot with NLRP3 antibody
T2 sequence: T1 sequence

[5] = target: HA-tagged UAF1 (in vitro transcribed and translated) (UniProt Q8TAF3); test: as above
[6] = target: Ubiquitin specific peptidase 1 (USP1)-associated factor 1 (endogenous, mouse peritoneal macrophages) (mouse (endogenous in peritoneal macrophages)) (UniProt Q8BH57); test: co-IP; endogenous proteins in lysates of mouse peritoneal macrophages, unstimulated or stimulated with LPS for the indicated times; IP with anti-p65, anti-USP1 or anti-UAF1, western blot; IP buffer 1.0% Nonidet P 40, 50 mM Tris-HCl pH 7.4, 50 mM EDTA, 150 mM NaCl
[7] = target: T3, Ubiquitin specific peptidase 1 (endogenous, mouse peritoneal macrophages) (mouse (endogenous in peritoneal macrophages)) (UniProt Q8BJQ2); test: as above
T3 sequence: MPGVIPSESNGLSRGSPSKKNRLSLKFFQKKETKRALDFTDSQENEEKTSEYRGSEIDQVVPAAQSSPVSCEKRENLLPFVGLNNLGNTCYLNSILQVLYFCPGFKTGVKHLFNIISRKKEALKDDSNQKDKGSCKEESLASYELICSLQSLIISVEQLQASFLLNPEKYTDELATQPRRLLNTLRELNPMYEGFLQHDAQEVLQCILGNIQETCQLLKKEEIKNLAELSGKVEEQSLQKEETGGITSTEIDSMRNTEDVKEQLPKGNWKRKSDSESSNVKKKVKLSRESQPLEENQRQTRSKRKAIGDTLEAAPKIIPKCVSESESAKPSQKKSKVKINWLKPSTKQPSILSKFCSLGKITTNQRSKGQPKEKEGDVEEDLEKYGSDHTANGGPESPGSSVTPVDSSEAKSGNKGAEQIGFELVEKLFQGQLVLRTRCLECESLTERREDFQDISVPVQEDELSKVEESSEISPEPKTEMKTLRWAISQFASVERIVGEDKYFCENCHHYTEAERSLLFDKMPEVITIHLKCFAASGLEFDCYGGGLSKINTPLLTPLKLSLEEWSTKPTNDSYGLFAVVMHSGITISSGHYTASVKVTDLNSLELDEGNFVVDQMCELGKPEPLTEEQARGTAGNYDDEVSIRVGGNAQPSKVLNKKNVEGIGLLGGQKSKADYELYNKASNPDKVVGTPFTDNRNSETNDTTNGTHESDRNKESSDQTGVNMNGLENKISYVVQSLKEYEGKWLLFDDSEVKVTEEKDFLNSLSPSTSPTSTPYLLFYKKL

[8] = target: NF-κB subunit p65 (endogenous, mouse peritoneal macrophages) (mouse (endogenous in peritoneal macrophages)) (UniProt Q04207); test: as above

Molecule: Flag-UAF1 (from UniProt Q8TAF3 1-677)
- binding [1]: binds

Molecule: Flag-USP12 (from UniProt O75317 1-370) (enzyme)
- binding [1]: binds

Molecule: Flag-USP46 (from UniProt P62068 1-366) (enzyme)
- binding [1]: binds

Molecule: Myc-NLRP3 NACHT domain mutant (NACHT) (from UniProt Q96P20 220-536) (domain or fragment)
- binding [2]: binds
- binding [3]: binds

Molecule: Myc-NLRP3 wild-type (from UniProt Q96P20 1-1036)
- binding [2]: binds
- binding [3]: binds

Molecule: Myc-tagged NLRP3 (in vitro transcribed and translated) (from UniProt Q96P20 1-1036)
- binding [4]: binds
- binding [5]: binds

Molecule: NOD-like receptor protein 3 (endogenous, mouse peritoneal macrophages) (from UniProt Q8R4B8 1-1033)
- binding [6]: binds
- binding [7]: binds

Molecule: USP12 (endogenous, mouse peritoneal macrophages) (from UniProt Q9D9M2 1-370) (enzyme)
- binding [8]: binds

Molecule: USP46 (endogenous, mouse peritoneal macrophages) (from UniProt P62069 1-366) (enzyme)
- binding [8]: binds

Molecule: Ubiquitin specific peptidase 1 (USP1)-associated factor 1 (endogenous, mouse peritoneal macrophages) (from UniProt Q8BH57-1 1-676)
- binding [8]: binds

B1: Ubiquitin specific peptidase 1 (endogenous, mouse peritoneal macrophages) (enzyme, UniProt Q8BJQ2 1-784)
chain: T3 sequence
- binding [8]: no binding

Reference: PMC7695691
